Experimental data: paper PMC10567574, “piRNA processing by a trimeric Schlafen-domain nuclease” (Nature, 2023)
These are yes or no findings as the source states them, for the method shown. Binding calls can cover weak binding; strength is not graded here. For some assays here: Sequences can lack the tags named with a protein. For some assays here: In cells and extracts the contact can be indirect.

Protein sequences, listed by entry. Tags and fused reporters are not part of them. Lines headed by an entry give the natural chain unless they say otherwise; changes in a name come on top.
UniProt Q09293: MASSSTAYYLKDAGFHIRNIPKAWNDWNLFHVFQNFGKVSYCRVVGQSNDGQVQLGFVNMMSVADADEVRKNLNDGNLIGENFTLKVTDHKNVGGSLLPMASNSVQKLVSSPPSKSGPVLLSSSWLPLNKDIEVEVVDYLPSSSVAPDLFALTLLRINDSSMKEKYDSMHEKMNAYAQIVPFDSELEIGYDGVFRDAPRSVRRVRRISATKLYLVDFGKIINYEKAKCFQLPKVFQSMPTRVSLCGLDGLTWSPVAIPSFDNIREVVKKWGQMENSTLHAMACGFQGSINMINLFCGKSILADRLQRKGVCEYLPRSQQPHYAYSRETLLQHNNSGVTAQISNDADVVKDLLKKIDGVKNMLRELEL

T1: GST-tagged TOFU-1^82-113 (C. elegans) (UniProt O17608)
T1 sequence: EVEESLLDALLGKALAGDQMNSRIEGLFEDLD

B1: SLFL-3 (co-expressed in E. coli) (protein, UniProt O61766 1-383)
chain: MDSGDFSPMQSNFSLGFMSFEDIPEDARTTEMIDKIVFEEDKEYDHTQDSFRYGRVTTGVSYNLVTGKIPKTVFEQVKAKDDENDNVEFEMEHLEDKETAHKTQTFDELYESQMPKYFDYQSNFSDVNGIWTLLFDQNHYEKMSTFELQAAICAALNSKHFMMICVGIDAFNAVTGVEMSAKDRVVFRMALTRAVAGEFQPPLVKVAPKQLTGVSPMKRDISEVTSSIDVLFVPVIGVTDEVENNRFLIVVRVKEISDKVYQISSGRIYNEQEGRVVEMSDMNEAFHKLIVEKSISDIQTRRGSMFMLEPEPFLEDSAVIFTESNEIPSENHEISRVHVKNCTERSLSQSLLNLLDIQNIGWIFFGTALSFCIYNNAIKPLVK

How the values were obtained:
[1] = biological target: T1, GST-tagged TOFU-1^82-113 (C. elegans); assay: pull-down; purified MBP-TOFU-6^eTUDOR constructs as bait (MBP pull-down) and GST-tagged TOFU-1 constructs as bait (GST pull-down); 20 mM Tris/HCl pH 7.5, 150 mM NaCl, 10% glycerol, 0.05% NP40, 1 mM DTT; SDS-PAGE with Coomassie staining; both purified
[2] = biological target: StrepII-tagged TOFU-2 SLFN domain (C. elegans); assay: pull-down; constructs co-expressed in E. coli; StrepII-tagged bait precipitated from the lysate by Strep-Tactin XT beads, 2 h at 4 C, 250 mM NaCl pH 8.0; SDS-PAGE with Coomassie staining

Molecule	binding [1]	binding [2]
mutant MBP-TOFU-6^eTUDOR domain (from UniProt Q09293) (domain or fragment)	binds	–
B1	–	binds
